{"source": "PubChem BioAssay AID1259254, NCATS | 2017", "test": "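Gene knock-downs that lead to re-replication, shown by excess G2 DNA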 (primary screen)", "cell system": "human HCT116 colorectal cancer cells", "reagent": "single siRNA against human genes", "time to read-out": "3 days", "read-out": "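Nuclei stained with Hoechst and imaged; cell-cycle phase assigned by DNA content; G2 share scaled per plate, non-targeting siRNA 0%, GMNN siRNA 100%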", "direction": "G2 robust z-score and G2 cells, % of GMNN control: higher = more G2 cells, more excess DNA replication", "hit rule": "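Active siRNAs have a G2 robust z of 5 or more median absolute deviations over the median, which in these data means about 38% or higher of GMNN control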", "note": "In all, the deposit lists about 59,000 reagents; shown is a random part of them. About 1,550 of them (2.6%) count as active. 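G2 share is only a proxy for re-replication; each gene was hit by three separate siRNAs, and active genes were retested.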 The numbers tell different reagents against one gene apart. Further read-outs or replicates are left out here. Reagent sequences are not shown. The record does not give: the amount of reagent."}
{"gene": "MPHOSPH9 (M-phase phosphoprotein 9)", "reagent no.": 1, "G2 robust z-score": -0.4, "G2 cells, % of GMNN control": 0.153, "outcome": "inactive"}
{"gene": "MPHOSPH9 (M-phase phosphoprotein 9)", "reagent no.": 2, "G2 robust z-score": -0.36, "G2 cells, % of GMNN control": 0.433, "outcome": "inactive"}
{"gene": "MPHOSPH9 (M-phase phosphoprotein 9)", "reagent no.": 3, "G2 robust z-score": 0.398, "G2 cells, % of GMNN control": 5.77, "outcome": "inactive"}
{"gene": "CTSD (cathepsin D)", "reagent no.": 1, "G2 robust z-score": 0.416, "G2 cells, % of GMNN control": 5.9, "outcome": "inactive"}
{"gene": "CTSD (cathepsin D)", "reagent no.": 2, "G2 robust z-score": 0.853, "G2 cells, % of GMNN control": 8.97, "outcome": "inactive"}
{"gene": "CTSD (cathepsin D)", "reagent no.": 3, "G2 robust z-score": -0.879, "G2 cells, % of GMNN control": -3.22, "outcome": "inactive"}
{"gene": "SLC26A2", "reagent no.": 1, "G2 robust z-score": -0.107, "G2 cells, % of GMNN control": 2.21, "outcome": "inactive"}
{"gene": "SLC26A2", "reagent no.": 2, "G2 robust z-score": 0.898, "G2 cells, % of GMNN control": 9.29, "outcome": "inactive"}
{"gene": "SLC26A2", "reagent no.": 3, "G2 robust z-score": 1.57, "G2 cells, % of GMNN control": 14, "outcome": "inactive"}
{"gene": "STAC2 (SH3 and cysteine rich domain 2)", "reagent no.": 1, "G2 robust z-score": -0.93, "G2 cells, % of GMNN control": -3.58, "outcome": "inactive"}
{"gene": "STAC2 (SH3 and cysteine rich domain 2)", "reagent no.": 2, "G2 robust z-score": 1.22, "G2 cells, % of GMNN control": 11.6, "outcome": "inactive"}
{"gene": "STAC2 (SH3 and cysteine rich domain 2)", "reagent no.": 3, "G2 robust z-score": 4.16, "G2 cells, % of GMNN control": 32.2, "outcome": "inactive"}
{"gene": "HERC5 (HECT and RLD domain containing E3 ubiquitin protein ligase 5)", "reagent no.": 1, "G2 robust z-score": -0.529, "G2 cells, % of GMNN control": -0.753, "outcome": "inactive"}
{"gene": "HERC5 (HECT and RLD domain containing E3 ubiquitin protein ligase 5)", "reagent no.": 2, "G2 robust z-score": 2.49, "G2 cells, % of GMNN control": 20.5, "outcome": "inactive"}
{"gene": "HERC5 (HECT and RLD domain containing E3 ubiquitin protein ligase 5)", "reagent no.": 3, "G2 robust z-score": -0.871, "G2 cells, % of GMNN control": -3.16, "outcome": "inactive"}
{"gene": "BTG4 (BTG anti-proliferation factor 4)", "reagent no.": 1, "G2 robust z-score": 0.393, "G2 cells, % of GMNN control": 5.73, "outcome": "inactive"}
{"gene": "BTG4 (BTG anti-proliferation factor 4)", "reagent no.": 2, "G2 robust z-score": 0.994, "G2 cells, % of GMNN control": 9.96, "outcome": "inactive"}
{"gene": "BTG4 (BTG anti-proliferation factor 4)", "reagent no.": 3, "G2 robust z-score": -0.218, "G2 cells, % of GMNN control": 1.43, "outcome": "inactive"}

Individual results from the entries so far:
For “G2 cells, % of GMNN control”, SLC26A2 #3 is entered as 14
STAC2 (SH3 and cysteine rich domain 2) #2, G2 cells, % of GMNN control → 11.6
